{"source": "PubChem BioAssay AID1259405 | NCATS – 2018", "test": "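Mouse-designed siRNAs used to find CHO productivity engineering targets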 (primary screen)", "cell system": "Chinese hamster CHO-K1 ovary cells with stable secreted eGFP expression", "reagent": "single siRNA against mouse genes, 0.8 pmol siRNA per well (2 µl of 400 nM stock)", "duration": "3 days", "read-out": "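Percent of the per-plate non-targeting control median for intracellular GFP per well by laser scanning cytometry and for cell viability by ATP luminescence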", "scale": "GFP, % of control: higher = more GFP per well, higher productivity; viability (ATP), % of control: higher = more viable cells (more ATP)", "hit rule": "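Called active when intracellular GFP, relative to negative control, is at or above 120%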", "note": "In all, the deposit lists about 50,000 reagents; this is a part drawn at random. Over the whole deposit, about 4,000 (8%) were called active. 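Mouse siRNA library applied to hamster cells; one well for each siRNA.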 Unmarked entries are inactive. Reagents against one gene are numbered here."}
{"target gene": "Suclg2 (GeneID 20917)", "reagent": 1, "GFP, % of control": 90.2, "viability (ATP), % of control": 57.1}
{"target gene": "Suclg2 (GeneID 20917)", "reagent": 2, "GFP, % of control": 68, "viability (ATP), % of control": 79.7}
{"target gene": "Suclg2 (GeneID 20917)", "reagent": 3, "GFP, % of control": 55, "viability (ATP), % of control": 46.7}
{"target gene": "Rfx6 (GeneID 320995)", "reagent": 1, "GFP, % of control": 90.3, "viability (ATP), % of control": 71.6}
{"target gene": "Rfx6 (GeneID 320995)", "reagent": 2, "GFP, % of control": 75.3, "viability (ATP), % of control": 47.7}
{"target gene": "Rfx6 (GeneID 320995)", "reagent": 3, "GFP, % of control": 72.1, "viability (ATP), % of control": 85.2}
{"target gene": "Dapp1 (GeneID 26377)", "reagent": 1, "GFP, % of control": 60.5, "viability (ATP), % of control": 49.7}
{"target gene": "Dapp1 (GeneID 26377)", "reagent": 2, "GFP, % of control": 81, "viability (ATP), % of control": 75.2}
{"target gene": "Dapp1 (GeneID 26377)", "reagent": 3, "GFP, % of control": 92, "viability (ATP), % of control": 63.1}
{"target gene": "Actl7b (GeneID 11471)", "reagent": 1, "GFP, % of control": 57.6, "viability (ATP), % of control": 52}
{"target gene": "Actl7b (GeneID 11471)", "reagent": 2, "GFP, % of control": 72.1, "viability (ATP), % of control": 90.6}
{"target gene": "Kif3c (GeneID 16570)", "reagent": 1, "GFP, % of control": 88.9, "viability (ATP), % of control": 46.8}
{"target gene": "Kif3c (GeneID 16570)", "reagent": 2, "GFP, % of control": 91.4, "viability (ATP), % of control": 97.7}
{"target gene": "Or7g22 (GeneID 258558)", "reagent": 1, "GFP, % of control": "172 (active)", "viability (ATP), % of control": 86.2}
{"target gene": "Or7g22 (GeneID 258558)", "reagent": 2, "GFP, % of control": 9.42, "viability (ATP), % of control": 12.4}
{"target gene": "Or7g22 (GeneID 258558)", "reagent": 3, "GFP, % of control": 65.5, "viability (ATP), % of control": 104}
{"target gene": "Cyp2b9 (GeneID 13094)", "reagent": 1, "GFP, % of control": 87.5, "viability (ATP), % of control": 59.5}
{"target gene": "Cyp2b9 (GeneID 13094)", "reagent": 2, "GFP, % of control": 62.5, "viability (ATP), % of control": 72.1}
{"target gene": "Cyp2b9 (GeneID 13094)", "reagent": 3, "GFP, % of control": 71.2, "viability (ATP), % of control": 80.1}
{"target gene": "Serpina1b (GeneID 20701)", "reagent": 1, "GFP, % of control": 94, "viability (ATP), % of control": 88.1}
{"target gene": "Serpina1b (GeneID 20701)", "reagent": 2, "GFP, % of control": 36.3, "viability (ATP), % of control": 29.7}
{"target gene": "Serpina1b (GeneID 20701)", "reagent": 3, "GFP, % of control": 89.3, "viability (ATP), % of control": 119}
{"target gene": "Taf15 (GeneID 70439)", "reagent": 1, "GFP, % of control": 60.3, "viability (ATP), % of control": 58.3}
{"target gene": "Taf15 (GeneID 70439)", "reagent": 2, "GFP, % of control": 61.6, "viability (ATP), % of control": 95.7}
{"target gene": "Taf15 (GeneID 70439)", "reagent": 3, "GFP, % of control": 77.7, "viability (ATP), % of control": 63.1}
{"target gene": "Cmbl (GeneID 69574)", "reagent": 1, "GFP, % of control": 66.9, "viability (ATP), % of control": 81.8}
{"target gene": "Cmbl (GeneID 69574)", "reagent": 2, "GFP, % of control": 53.4, "viability (ATP), % of control": 37.8}
{"target gene": "Cmbl (GeneID 69574)", "reagent": 3, "GFP, % of control": 79.2, "viability (ATP), % of control": 95.6}

Reprinted from the entries so far, 2 entries:
{"target gene": "Rfx6 (GeneID 320995)", "reagent": 2, "GFP, % of control": 75.3, "viability (ATP), % of control": 47.7}
{"target gene": "Rfx6 (GeneID 320995)", "reagent": 3, "GFP, % of control": 72.1, "viability (ATP), % of control": 85.2}
